The record followed here is article PMC9559323.

Results are given in words; binding and its absence hold for the method and conditions named. Binding seen in cells or lysates may run through a third protein. These calls come from enrichment with a bait or labelling near it, and not all partners need be listed.

This assay deals with translocated EspH_(Δ130-168) (SBP-tagged) (enteropathogenic Escherichia coli (EPEC)). The assay can be described thus: affinity purification with mass spectrometry; HeLa cells infected 90 min at 37°C with EPEC strains; SBP-tagged translocated EspH precipitated from lysates (50 mM Tris pH 7.4, 150 mM NaCl, 0.5% NP-40) with StAv agarose beads, 4 hrs at 4°C; on-bead digestion, LC-MS/MS, label-free quantification.

B1: Rab3A (protein, UniProt P20336 1-220)
chain: MASATDSRYGQKESSDQNFDYMFKILIIGNSSVGKTSFLFRYADDSFTPAFVSTVGIDFKVKTIYRNDKRIKLQIWDTAGQERYRTITTAYYRGAMGFILMYDITNEESFNAVQDWSTQIKTYSWDNAQVLLVGNKCDMEDERVVSSERGRQLADHLGFEFFEASAKDNINVKQTFERLVDVICEKMSESLDTADPAVTGAKQGPQLSDQQVPPHQDCAC
Take B1: the binding entry is “binds”.
